Assay results from PMC6185962.
No constants are given. Whether binding was seen depends on the method and setting. In cells and extracts the contact can be indirect. A result given as binding can be weak or reduced; the word gives no strength. Where a sequence is shown, tags or fusion partners need not be part of it.

Target: T1, Myc-tagged DUSP10 WT (UniProt Q9ESS0)
T1 sequence: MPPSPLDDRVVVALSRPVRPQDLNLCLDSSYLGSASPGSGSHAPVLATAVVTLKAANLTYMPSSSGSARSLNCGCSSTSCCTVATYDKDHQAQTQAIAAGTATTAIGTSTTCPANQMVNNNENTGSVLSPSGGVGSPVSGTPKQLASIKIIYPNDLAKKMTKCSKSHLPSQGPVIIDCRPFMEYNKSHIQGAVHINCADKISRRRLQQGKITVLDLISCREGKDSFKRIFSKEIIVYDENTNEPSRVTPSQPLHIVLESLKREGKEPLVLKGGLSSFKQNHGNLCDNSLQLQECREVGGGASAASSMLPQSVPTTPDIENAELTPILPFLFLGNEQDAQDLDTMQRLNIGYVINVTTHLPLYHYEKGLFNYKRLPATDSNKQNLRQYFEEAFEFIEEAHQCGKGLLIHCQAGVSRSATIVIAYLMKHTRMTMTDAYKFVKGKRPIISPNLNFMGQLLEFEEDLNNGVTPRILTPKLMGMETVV
Assay: co-IP; 293T cells transfected with Flag-tagged GATA3 and/or Myc-tagged DUSP10; immunoprecipitation with mAb to Flag or mAb to Myc, immunoblot for p38; IL-33 not added to the cells

binding: binds
Substance: p38 MAPK (human (endogenous in 293T)) (enzyme)
